From the supplement of paper PMC10338343 come the findings set out here.

± gives the standard deviation. The entries are a selection whose mix differs from that of the whole data set. Many of these values have a large error.

One experiment concerns MILI (PIWIL2) piRISC loaded with L1MC piRNA (26 nt). Briefly: pre-steady-state target cleavage rate (min^-1); MIWI and MILI are mouse PIWI proteins and EfPiwi is from a freshwater sponge; tags in brackets are library labels; higher = faster piRNA-guided slicing of the target. Particulars: guide: L1MC piRNA 5'p-UAACUAAAUACUAUGCAAGCUGUAGG; auxiliary factor: 500 nM mouse GTSF1. The method, then: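 Cleave-'n-Seq: a library of target RNAs (target site embedded in constant flanks, ACAGCATTCCGCGTTAGTGATATCCG... 5' flank; DNA-blocked outside the site) at 0.1 nM was incubated with 1 nM active mouse MILI or MIWI piRISC (synthetic 5'-monophosphorylated piRNA guide) with or without 500 nM mouse GTSF1 at 33 °C for 1 min to 16 h. Uncleaved targets were sequenced and normalised to non-target controls, and the pooled three trials were fitted to a burst-and-steady-state model to give the pre-steady-state cleavage rate (min^-1; k3 is constrained to at most 1e-4). Sequence is the target site only; target names encode pairing extent (gX:gY) and contiguous / 1-mismatch / 2-mismatch / bulge geometry. Fits with R² ≤ 0 are excluded.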
Consider UCCUGGAUGUCGAAGCAUGGUAUUUAGUUA, for which the “pre-steady-state target cleavage rate” value came out at 0.0111 ± 0.0048. Regarding UCCUGGAACAGCUUGCAUAGUAUAUAGAUA, the “pre-steady-state target cleavage rate” value was 0.0877 ± 0.022.

With UCCUGGAUCAGCUUGCAUAGAUAUUAGUAA, the “pre-steady-state target cleavage rate” value was found to be 0.00413 ± 0.0043.

With UCCUGGAUGUCGAACGUUAUUAUUUAGUUA, the “pre-steady-state target cleavage rate” value amounted to 0.000121 ± 0.047. Regarding UCCUGGAUGAGCUUGCAUAGUUAUUAGUAA, the “pre-steady-state target cleavage rate” value is 0.00294 ± 0.0051. Regarding UCCUGGAUCUCCUUGCAUAGUAUUUACAAA, the “pre-steady-state target cleavage rate” value worked out at 0.0872 ± 0.018. The same measure, in the same setting: then UCCUGCUACAGCUUCAUAGUAUUUAGUUA, with 0.231 ± 0.019.

For UCCUGGAUGAGCUUCCAUUGUAUUUAGUUA, the “pre-steady-state target cleavage rate” value was determined as 0.0518 ± 0.016.

Turning to UCCUGGAUCAGCUUGCAUAGUAAAUUCAAA, the “pre-steady-state target cleavage rate” value is 0.0136 ± 0.0055.

Regarding UCCUGGAACAGCUUGCAUAGUAUAUAGAAA, the “pre-steady-state target cleavage rate” value came out at 0.0917 ± 0.026. The same measure, in the same setting: then UCCUGGAUGUGCUUGCAGUAGUAUUUAGUUA, with 0.00165 ± 0.0073; and UCCUGGAACAGCUUGGAAAGUAUUUAGUUA, with 0.125 ± 0.0077. As to UCCUCGUACAGCUUGCAUAGUUUUUAGUUA, the “pre-steady-state target cleavage rate” value was 0.0651 ± 0.008. On the same count and under the same terms, then UCCUGGAACAGCUUGGAUAGUAUUAAGUUA, with 0.186 ± 0.033.

The same experiment, now with this note: guide: L1MC piRNA 5'p-UAACUAAAUACUAUGCAAGCUGUAGG; auxiliary factor: none (no GTSF1).
For the sequence UCCUGCUACAGCUUGCAUUCAAUUUUCAAA, the “pre-steady-state target cleavage rate” value was 0.000815 ± 0.0061. Same read-out and setting: in the case of UCCUGGAUGUCGUAGCAUAGUAUUUAGAUA it was 0.000566 ± 0.011; in that of UCCUGGAUGUCGAAGCAUGGUAUUUAGUUA, 0.00436 ± 0.0021.

As to UCCUGGAACAGCUUGCAUAGUAUAUAGAUA, the “pre-steady-state target cleavage rate” value was determined as 0.0013 ± 0.0052. On the same count and under the same terms, in the case of UCCUGCUACAGCUUGCAUAGUAUUAUCUAA it was 0.000942 ± 0.0053; in that of UCCUGGAUCAGCUUGCAUAGAUAUUAGUAA, 0.000484 ± 0.013. Take UCCUGGAUGUCGAACGUUAUUAUUUAGUUA: the “pre-steady-state target cleavage rate” value stood at 0.000256 ± 0.014. The same measure, in the same setting: in the case of UCCUGGAACAGCUUGCAUAGUAUUAUCUAA it was 0.00106 ± 0.0059.

Turning to UCCUGGAUGAGCUUGCAUAGUUAUUAGUAA, the “pre-steady-state target cleavage rate” value was 0.001 ± 0.0074.

In the case of UCCUGGAUGUGCUUCCAUAGUAUUUAGAAA, the “pre-steady-state target cleavage rate” value is 0.000304 ± 0.019. Same read-out and setting: then UCCUGGAUCUGCUUGCAUAGUAUUUAGAUA, with 0.00202 ± 0.0034; and UCCUGGAUCUCCUUGCAUAGUAUUUACAAA, with 0.000768 ± 0.0059. UCCUGGAACAGCUUGCAUAGUAUAAUGAAA: the “pre-steady-state target cleavage rate” value stood at 0.000965 ± 0.0065.

Regarding UCCUGGAACAGCUUGCAUAGUAUUUCGUUA, the “pre-steady-state target cleavage rate” value was 0.00149 ± 0.004.

On to UCCUCCUACAGCUUGCAUAGUAAUUAGAAA, for which the “pre-steady-state target cleavage rate” value came out at 0.00171 ± 0.004. Same read-out and setting: then UCCUGCUACAGCUUCAUAGUAUUUAGUUA, with 0.00508 ± 0.0025; and UCCUGGAUGAGCUUCCAUUGUAUUUAGUUA, with 0.00121 ± 0.0054. Same read-out and setting: then UCCUGGAACAGCUUCCAUAGUAUUUACAAA, with 0.000388 ± 0.017; and UCCUGGAUCAGCUUGCAUAGUAAAUUCAAA, with 0.000896 ± 0.0067; and UCCUGGAACAGCUUGCAUAGUAUAUAGAAA, with 0.00108 ± 0.0056. Still for that read-out and setting: in the case of UCCUGGAACAGCUUGCUAAGUAUUUAGUAA it was 0.00163 ± 0.0034; in that of UCCUGGAUGUGCUUGCAGUAGUAUUUAGUUA, 0.000718 ± 0.011. As for UCCUGCUACAGCUUCCAUAGAAUUUAGUUA, the “pre-steady-state target cleavage rate” value was 0.000568 ± 0.012.

Take UCCUGGAACAGCUUGGAAAGUAUUUAGUUA: the “pre-steady-state target cleavage rate” value stood at 0.00969 ± 0.0023. For the sequence UCCUCCUACAGCUUGCAUUGUAUUUUCAAA, the “pre-steady-state target cleavage rate” value worked out at 0.000923 ± 0.0047.

For UCCUCGUACAGCUUGCAUAGUUUUUAGUUA, the “pre-steady-state target cleavage rate” value turned out to be 0.00493 ± 0.0018. The same measure, in the same setting: in the case of UCCUGGAACAGCUUGGAUAGUAUUAAGUUA it was 0.00183 ± 0.004.
